Assay: ELISA of antifungal polypeptide expression in leaves of transgenic potato plants
Parameters: species or system potato (Solanum tuberosum var. Russet Burbank)
Conditions: leaf
Protocol: Leaf samples (20 to 100 mg) were taken from transgenic plants grown to 1 to 2 inches in height. The leaf samples were ground in PBST buffer (15 μl/mg tissue) containing 1 mM KH2PO4, 10 mM Na2HPO4, 137 mM NaCl, 2.7 mM KCl, pH 7.4, and 0.05% Tween-20, and allowed to sit at 4° C. overnight. After centrifugation, 100 μl of the supernatant were used in an ELISA assay. Polyclonal antibodies against Rs-AFP1 polypeptide (SEQ ID NO:18) were prepared by Pocono Rabbit Farm (Pocono, Pa.). Wells of a Nunc Maxi-sorp 96 well plate (Nunc #4-39454) were coated with antibodies against Rs-AFP1 polypeptide by adding 100 μl of antibodies (1 mg IgG/ml) diluted 1:200 in coating buffer containing 1.59 g Na2CO3 and 2.93 g NaHCO3 per liter distilled water, pH 9.6, and incubating at 4° C. overnight. The coating solution was then removed from the wells, which were then washed three times with PBST. One hundred μl of leaf supernatant or appropriately diluted polypeptide standards in PBST supplemented with 0.2% (w/v) BSA, fraction V (Sigma, St. Louis) were added to the wells. The concentration of each polypeptide in extracts from transgenic plants was determined from standard curves constructed using varying amounts of the respective purified polypeptide. AlyAFP, Rs-AFP1, and Rs-AFP2 cross-reacted with the polyclonal antibody preparation. After overnight incubation at 4° C., the solutions were removed from the wells, and the wells were washed three times with PBST. One hundred μl of a 1:1000 dilution in PBST of a 0.5 mg/ml Rs-AFP1 antibody/alkaline phosphatase conjugate prepared according to Boorsma et al. ((1975) J. Histochem. Cytochem. 23: 200-207) were added to each well. The plate was incubated at 22° C. for 4 hours, and the wells were then washed five times with PBST. One hundred μl of a freshly prepared solution of p-nitrophenyl phosphate (1 mg/ml) (Sigma Chemical Co., St. Louis, Mo.) dissolved in 200 mM Tris buffer, pH 9, were added to each well, and the plate was incubated at 22° C. for 1 hour. The optical density at 405 nm was determined using a Thermo-max microplate reader (Molecular Devices, Menlo Park, Calif.). Plants expressing different levels of antifungal polypeptides were used for subsequent disease tests.

Which results are given for “AlyAFP: antifungal polypeptide of 50 amino acids obtainable from flowers of Alyssum, SEQ ID NO:2 (RLCERPSGTWSGVCGNNNACRNQCRNLERAEHGSCNYVFPAHKCICYFPC)”?
Protein Expression (μg AFP/g tissue) (potato line 17575): 14.9 μg AFP/g tissue; Protein Expression (μg AFP/g tissue) (potato line 17578): 12.7 μg AFP/g tissue; Protein Expression (μg AFP/g tissue) (potato line 17580): 0.9 μg AFP/g tissue; Protein Expression (μg AFP/g tissue) (potato line 17581): 9.2 μg AFP/g tissue; Protein Expression (μg AFP/g tissue) (potato line 17587): 9.6 μg AFP/g tissue; Protein Expression (μg AFP/g tissue) (potato line 17589): 1.1 μg AFP/g tissue; Protein Expression (μg AFP/g tissue) (potato line 17592): 2.6 μg AFP/g tissue; Protein Expression (μg AFP/g tissue) (potato line 17593): 2.6 μg AFP/g tissue; Protein Expression (μg AFP/g tissue) (potato line 17595): 5.2 μg AFP/g tissue; Protein Expression (μg AFP/g tissue) (potato line 17618): 2.6 μg AFP/g tissue

Which results are given for “Rs-AFP1: small cysteine-rich antifungal protein isolated from radish seed (WO 93/05153), SEQ ID NO:18 (QKLCERPSGTWSGVCGNNNACKNQCINLEKARHGSCNYVFPAHKCICYFPC)”?
Protein Expression (μg AFP/g tissue) (potato line 15117): 9.7 μg AFP/g tissue; Protein Expression (μg AFP/g tissue) (potato line 15120): 8.0 μg AFP/g tissue; Protein Expression (μg AFP/g tissue) (potato line 15124): 26 μg AFP/g tissue; Protein Expression (μg AFP/g tissue) (potato line 15143): 18.3 μg AFP/g tissue; Protein Expression (μg AFP/g tissue) (potato line 15154): 5.2 μg AFP/g tissue

Which results are given for “Rs-AFP2: small cysteine-rich antifungal protein isolated from radish seed (WO 93/05153), SEQ ID NO:19 (QKLCQRPSGTWSGVCGNNNACKNQCIRLEKARHGSCNYVFPAHKCICYFPC)”?
Protein Expression (μg AFP/g tissue) (potato line 13500): 10.8 μg AFP/g tissue; Protein Expression (μg AFP/g tissue) (potato line 13501): 25.2 μg AFP/g tissue; Protein Expression (μg AFP/g tissue) (potato line 13503): 25.1 μg AFP/g tissue; Protein Expression (μg AFP/g tissue) (potato line 13531): 16.2 μg AFP/g tissue; Protein Expression (μg AFP/g tissue) (potato line 13532): 17.5 μg AFP/g tissue

Source: US6653280B2, “Antifungal polypeptide AlyAFP from Alyssum and methods for controlling plant pathogenic fungi” (Monsanto Technology LLC, priority 1996, dated 2003)
